Our source for the AC50 values is PubChem BioAssay AID1487 (National Center for Advancing Translational Sciences (NCATS), 2009).

Each structure is given as a SMILES string. The list shows a part of the results. These are further read-outs of the screen, such as a control signal, another cell line or another target. No call is given for them. Compounds called inactive in the main read-out are mostly missing here. Potencies come from curve fits of mixed quality, noted in brackets.

This assay is described as follows: qHTS Assay for Modulators of Lamin A Splicing. Particulars: HeLa LMNA splicing GFP/RFP minigene ratio, 48 h. The method, boiled down: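 Read-out is the ratio of GFP to DsRed2 object intensity, acquired by 488 nm laser-scanning cytometry on HeLa lamin A-EGFP minigene reporter cells. Compound incubation 48 hrs at 37 °C in Opti-MEM with 2% FBS; DMSO 0.5% final.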

[1] abbreviates: measured here: RFP viability control channel.
Where [2] appears, read: measured here: GFP splicing reporter channel.

Take `N#CC1(Cc2ccc(Cl)cc2)c2ccccc2C=CN1C(=O)c1ccccc1` (stereo not drawn): the AC50 under setting [1] was 10 µM [rising, single point].
Regarding `COc1ccc(C(C)(C)C)cc1S(=O)(=O)n1ccnc1C`, under setting [2], the AC50 is 0.00794 µM [rising, full curve, poor fit].
Regarding `CCCC(=O)Nc1cccc(NC(=S)NC(=O)C(C)Oc2ccc(Cl)cc2Cl)c1` (stereo not drawn), the AC50 runs as follows: under setting [2], 14.1 µM [rising, single point]; under setting [1], 17.8 µM [rising, single point].
Take `C=CC[n+]1c(-c2ccc(Cl)cc2Cl)csc1Nc1ccc(NC(C)=O)cc1`: under setting [1], the AC50 is 31.6 µM [rising, single point].
On to `Cc1nnc(N/N=C/c2ccccc2O)n1N`, for which the AC50 is 31.6 µM [falling, single point] under setting [2] and 7.08 µM [falling, partial curve] under setting [1].
Turning to `O=C(NCc1cccnc1)/C(=C/c1ccc(-c2ccc(Cl)cc2)o1)S(=O)(=O)c1ccccc1`, the AC50 runs as follows: under setting [2], 2.82 µM [falling, full curve]; under setting [1], 3.16 µM [falling, full curve].
For the compound `N#Cc1ccc(-c2ccccc2)nc1SCC(=O)c1cccc(Cl)c1`, the AC50 is 35.5 µM [falling, single point] under setting [2] and 35.5 µM [falling, single point] under setting [1].
In the case of `O=C(NCCc1ccccc1)c1ccc(-c2ccccc2C(F)(F)F)o1`, the AC50 under setting [1] was 6.31 µM [rising, partial curve, poor fit].
In the case of `CNC(=O)CSc1nnc(-c2ccc3c(c2)OCO3)n1C`, the AC50 under setting [1] was 6.31 µM [falling, partial curve, poor fit].
Take `CCOC(=O)c1c(C)oc2ccc(O)c(CN3CCCCC3)c12`: the AC50 under setting [1] was 35.5 µM [rising, partial curve].
`O=S(=O)(c1ccc(Oc2ccccc2)cc1)N1CCOCC1`: the half-maximal activity concentration (AC50) under setting [1] is 11.2 µM [rising, single point].
Take `CCOc1ccc(CNC(=O)CCCn2c(=O)c3cccn3c3ccccc32)cc1`: under setting [1], the AC50 is 35.5 µM [falling, single point].
As for `COCC(=O)Nc1c(I)c(C(=O)NC[C@@H](O)CO)c(I)c(C(=O)N(C)C[C@@H](O)CO)c1I`, the AC50 was 2.24 µM [falling, single point] under setting [2] and 0.00398 µM [falling, full curve, poor fit] under setting [1].
On to `Cc1cccc(NC(=O)COc2ccc(Br)cc2/C=N/O)c1`, for which the AC50 under setting [1] was 35.5 µM [rising, single point].
The same measure, in the same setting: in the case of `O=C(O)c1n[nH]nc1-c1ccccc1` it was 1.78 µM [falling, full curve, poor fit].
In the case of `CC(Sc1nnnn1-c1ccccc1)C(=O)Nc1ccccc1-c1ccccc1` (stereo not drawn), the AC50 under setting [1] is 15.8 µM [rising, single point].
As to `Cc1nnc(SCCN2CCOCC2)c2nn(-c3ccccc3F)c(C)c12`, under setting [2], the AC50 is 0.0224 µM [rising, full curve, poor fit].
Consider `CC(C)c1ccc(C2NC(=S)NC3=C2C(=O)CC(C)(C)C3)cc1` (stereo not drawn), for which the concentration at half-maximal activity (AC50) under setting [1] was 35.5 µM [rising, single point].
Same read-out and setting: the result for `Clc1ccc2[nH]c3c(NCC4CCCO4)ncnc3c2c1` (stereo not drawn) reads 14.1 µM [rising, partial curve].
For `Nc1ccc2c(c1)C/C(=C/c1ccco1)C2=O`, the AC50 under setting [2] was 7.08 µM [rising, partial curve].
On to `Cc1ccc(-c2nnc(SCC(=O)NC(C)(C)C)nc2-c2ccc(C)cc2)cc1`, for which the half-maximal activity concentration (AC50) under setting [2] is 15.8 µM [falling, partial curve, poor fit].
Regarding `Nc1nc(SCn2nnc3ccccc3c2=O)n[nH]1`, the AC50 was 5.01 µM [falling, partial curve, poor fit] under setting [2] and 7.08 µM [falling, partial curve, poor fit] under setting [1].
Consider `Cc1ccc(-n2c(SCC(=O)Nc3cccc(S(N)(=O)=O)c3)nc3ccccc32)cc1`, for which the AC50 under setting [1] was 11.2 µM [rising, partial curve].
With `Cn1sc(=O)c2cc(S(=O)(=O)NC3CC3)ccc21`, the AC50 under setting [2] is 4.47 µM [falling, full curve, poor fit].
In the case of `Cc1ccc(C(=O)N/C(=C\c2ccccc2)C(=O)OCc2ccccc2)cc1`, the AC50 under setting [1] was 15.8 µM [rising, partial curve].
`C=CCn1c(N)c(C(=O)OC(C)CC)c2nc3ccccc3nc21` (stereo not drawn): the AC50 was 14.1 µM [rising, single point] under setting [2] and 10 µM [rising, partial curve] under setting [1].
As to `COc1ccc2nc(SCC(=O)NC3CCCc4ccccc43)[nH]c2c1` (stereo not drawn), the AC50 under setting [1] was 22.4 µM [rising, single point].
With `O=C(Cn1cnc2ccccc21)N1CCN(S(=O)(=O)c2ccccc2)CC1`, under setting [1], the AC50 was 0.708 µM [rising, full curve, poor fit].
Take `C/C(=N\NC(=O)c1cccc(F)c1)c1ccc(Br)s1`: the AC50 is, setting by setting: under setting [2], 35.5 µM [falling, single point]; under setting [1], 35.5 µM [falling, single point].
On to `COc1ccc2nc(N(Cc3cccnc3)C(=O)C3COc4ccccc4O3)sc2c1` (stereo not drawn), for which, under setting [2], the AC50 is 0.0141 µM [rising, full curve, poor fit].
As for `CC1=CC2=NC(=O)/C(=C\c3cccn3CCOc3cc(C)ccc3C)C(=N)N2O1`, under setting [1], the concentration at half-maximal activity (AC50) is 1.26 µM [rising, partial curve, poor fit].
Consider `COc1ccc(N2CCN(S(=O)(=O)CCNC(=O)C3CC(=O)N(c4ccccc4)C3)CC2)cc1` (stereo not drawn), for which the AC50 under setting [2] is 0.0112 µM [falling, full curve, poor fit].
As to `CC(=O)c1c(C)oc2c1C(=O)c1ccccc1C2=O`, the half-maximal activity concentration (AC50) under setting [2] is 3.16 µM [falling, single point] and the AC50 under setting [1] is 31.6 µM [rising, single point].
`CN(C)CC[C@@H](c1ccc(Br)cc1)c1ccccn1`: the AC50 under setting [2] is 35.5 µM [falling, single point].
As for `O=C(Nc1ccc(Cc2ccncc2)cc1)c1ccc(Br)o1`, under setting [1], the AC50 was 14.1 µM [rising, single point].
For the compound `NC(=S)N/N=C/c1ccc(-c2ccccc2)o1`, the AC50 under setting [1] was 35.5 µM [falling, single point].
Consider `COc1ccc(-c2c(C(C)=O)c(C)n(C)c2C)cc1`, for which the AC50 by setting is: under setting [2], 10 µM [rising, partial curve, poor fit]; under setting [1], 22.4 µM [rising, single point].
`O=C(O)CCc1ccc(-c2ccccc2)n1NC(=O)c1cccs1`: the half-maximal activity concentration (AC50) under setting [1] is 31.6 µM [rising, single point].
